The values below come from paper PMC12709188.

By UniProt entry, the sequences of proteins in these tests, tags left out. Where a name states a change or a piece, a line headed by the entry shows the natural chain unless it says otherwise.
UniProt A0R4M8: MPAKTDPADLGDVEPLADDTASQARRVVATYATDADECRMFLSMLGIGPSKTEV
UniProt A0R561: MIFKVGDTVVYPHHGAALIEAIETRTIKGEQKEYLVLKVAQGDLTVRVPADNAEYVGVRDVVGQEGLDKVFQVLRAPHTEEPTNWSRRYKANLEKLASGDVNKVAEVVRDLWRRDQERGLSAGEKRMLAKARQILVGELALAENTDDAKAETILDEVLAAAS
UniProt A0QQC8: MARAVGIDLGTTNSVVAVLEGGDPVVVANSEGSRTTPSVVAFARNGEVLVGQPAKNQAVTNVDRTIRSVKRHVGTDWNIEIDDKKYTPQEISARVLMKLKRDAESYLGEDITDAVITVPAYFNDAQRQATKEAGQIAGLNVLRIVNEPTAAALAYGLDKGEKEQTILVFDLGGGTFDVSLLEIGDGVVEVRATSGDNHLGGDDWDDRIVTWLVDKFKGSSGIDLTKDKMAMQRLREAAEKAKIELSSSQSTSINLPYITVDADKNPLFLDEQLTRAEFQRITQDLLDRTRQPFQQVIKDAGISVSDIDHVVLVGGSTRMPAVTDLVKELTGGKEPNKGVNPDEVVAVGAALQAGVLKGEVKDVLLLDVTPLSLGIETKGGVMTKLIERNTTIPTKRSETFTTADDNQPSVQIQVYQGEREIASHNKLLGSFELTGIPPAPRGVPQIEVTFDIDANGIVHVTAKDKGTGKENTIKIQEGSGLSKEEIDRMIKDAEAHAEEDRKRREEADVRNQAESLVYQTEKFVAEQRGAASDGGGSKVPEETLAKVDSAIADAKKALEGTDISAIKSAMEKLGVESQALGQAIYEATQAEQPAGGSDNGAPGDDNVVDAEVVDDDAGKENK

Test [1] has as its target CrsL–His (in vitro purified CrsL) (M. smegmatis) (UniProt A0R4M8). Briefly: native gel or EMSA; purified CrsL, CarD and DnaK mixed in 1× STB buffer (50 mM Tris–HCl pH 8.0, 5 mM Mg acetate, 100 μM DTT, 50 mM KCl, 50 μg/ml BSA), 37°C 15 min; 8% native gel at 4°C; Coomassie stain, bands confirmed by mass spectrometry; both purified.
The target of test [2] is CrsL–FLAG (FLAG-tagged CrsL under an ATc inducible promoter) (M. smegmatis) (UniProt A0R4M8). Briefly: co-IP; FLAG pull-down: M. smegmatis lysates (2–4 mg protein; exponential and stationary phase; for RNAP-FLAG also after crsL knock-down) with M2 anti-FLAG resin 16–18 h at 4°C in 20 mM Tris–HCl pH 7.9, 150 mM KCl, 1 mM MgCl2; SDS–PAGE, silver stain, bands identified by MALDI-FTICR MS and/or western blot. (In general: In western blotting, separated proteins are transferred to a membrane and probed.)

Test [3] deals with CarD–NT (in vitro purified CarD) (M. smegmatis) (UniProt A0R561). In words: native gel or EMSA; purified CrsL, CarD and DnaK mixed in 1× STB buffer (50 mM Tris–HCl pH 8.0, 5 mM Mg acetate, 100 μM DTT, 50 mM KCl, 50 μg/ml BSA), 37°C 15 min; 8% native gel at 4°C; Coomassie stain, bands confirmed by mass spectrometry; both purified. Background: In EMSA bound probe runs differently from free probe, usually more slowly.

The target is the same in test [4]. Briefly: NMR titration; 2D 1H–15N HSQC of [15N]-CrsL with 0–400 μM unlabeled CarD, and spectra of [13C,15N]-CarD with unlabeled CrsL; high-salt NMR buffer (20 mM sodium phosphate pH 7, 0.5 mM TCEP, 300 mM NaCl), 27°C; both purified.
The target in test [5] is CrsL–His (in vitro purified CrsL) (M. smegmatis) (UniProt A0R4M8). Briefly: far-Western, overlay or dot blot; BSA, CarD–NT and CrsL–His resolved by SDS–PAGE, blotted on nitrocellulose, denatured and renatured with guanidine–HCl; membrane incubated overnight with purified CarD (20 μg in 10 ml), detected with anti-CarD antibody; both purified.
The target is the same in test [6]. In words: NMR titration; 2D 1H–15N HSQC of [15N]-CrsL with 0–400 μM unlabeled CarD, and spectra of [13C,15N]-CarD with unlabeled CrsL; high-salt NMR buffer (20 mM sodium phosphate pH 7, 0.5 mM TCEP, 300 mM NaCl), 27°C; both purified.

These are yes or no findings as the source states them, for the method shown. Binding can be weak; no strength is given. For some of these results: In cells and extracts the contact can be indirect.

Turning to “DnaK-His (in vitro purified DnaK) (from UniProt A0QQC8 1-622)”, the binding result in test [1] is given as “binds weakly”. Regarding “DnaK chaperon protein (MSMEG_0709) (from UniProt A0QQC8 1-622)”, the binding entry in test [2] was “binds”. As to “CrsL–His (in vitro purified CrsL) (from UniProt A0R4M8)”, the binding result in test [3] and in test [4] was “binds” in each case. As to “CarD–NT (in vitro purified CarD) (from UniProt A0R561 1-162)”, the binding result in test [5] and in test [6] was “binds” throughout.

With CarD (from UniProt A0R561 1-162), the binding result in test [2] is recorded as “binds”.
